Where a name gives a salt, the structure may show the parent alone. Some of the results follow. Hit calls seldom repeat between salt and free forms of one compound.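 Kinases, fused to nanoluciferase, were expressed in K562 cells; luminescence was measured every 4 h from 2 to 18 h as percent of control (DMSO = 100%, positive control = 0%). A time point is decreased if signal falls significantly (2 sigma). Hits were called by the authors by a rule that is not shown; the count of time points alone does not decide it.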
Columns and labels:
Assay in all cases: number of time points (of 5) at which kinase-Nluc abundance scored as decreased, DMSO-normalised (count); higher = more persistent destabilization
Details in all cases: K562; 2-18 h
CAMK2A = CAMK2A (UniProt Q9UQM7)
CAMK2G = CAMK2G (UniProt Q13555)
CDK10 = CDK10 (UniProt Q15131)
CDK2 = CDK2 (UniProt P24941)
CDK3 = CDK3 (UniProt Q00526)
CDK5 = CDK5 (UniProt Q00535)
CDK6 = CDK6 (UniProt Q00534)
CHEK2 = CHEK2 (UniProt O96017)
CSF1R = CSF1R (UniProt P07333)
CSK = CSK (UniProt P41240)
CSNK1A1 = CSNK1A1 (UniProt P48729)
CSNK1D = CSNK1D (UniProt P48730)
DDR1 = DDR1 (UniProt Q08345)
DYRK1B = DYRK1B (UniProt Q9Y463)
DYRK2 = DYRK2 (UniProt Q92630)
EGFR = EGFR (UniProt P00533)
EGFR_G719S = EGFR_G719S (UniProt P00533)
EGFR_G719S_T790M = EGFR_G719S_T790M (UniProt P00533)
EGFR_L718V = EGFR_L718V (UniProt P00533)
EGFR_L858R = EGFR_L858R (UniProt P00533)

The chains behind the UniProt entries cited, without tags or fusion partners. Where a name states a change or a piece, a line headed by the entry shows the natural chain unless it says otherwise.
UniProt Q9UQM7, whole entry: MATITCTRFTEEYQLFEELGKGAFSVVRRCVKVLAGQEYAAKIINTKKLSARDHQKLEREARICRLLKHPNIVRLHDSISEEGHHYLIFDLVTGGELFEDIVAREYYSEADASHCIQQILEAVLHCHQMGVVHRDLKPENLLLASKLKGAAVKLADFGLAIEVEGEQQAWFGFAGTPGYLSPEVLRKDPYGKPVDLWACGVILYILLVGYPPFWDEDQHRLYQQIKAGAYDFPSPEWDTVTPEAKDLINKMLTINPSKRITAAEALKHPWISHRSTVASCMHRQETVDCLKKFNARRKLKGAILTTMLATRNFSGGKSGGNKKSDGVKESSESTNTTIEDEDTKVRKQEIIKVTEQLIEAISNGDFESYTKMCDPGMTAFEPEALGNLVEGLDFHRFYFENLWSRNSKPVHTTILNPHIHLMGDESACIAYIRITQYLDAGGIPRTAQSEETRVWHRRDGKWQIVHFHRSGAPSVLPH
UniProt Q13555: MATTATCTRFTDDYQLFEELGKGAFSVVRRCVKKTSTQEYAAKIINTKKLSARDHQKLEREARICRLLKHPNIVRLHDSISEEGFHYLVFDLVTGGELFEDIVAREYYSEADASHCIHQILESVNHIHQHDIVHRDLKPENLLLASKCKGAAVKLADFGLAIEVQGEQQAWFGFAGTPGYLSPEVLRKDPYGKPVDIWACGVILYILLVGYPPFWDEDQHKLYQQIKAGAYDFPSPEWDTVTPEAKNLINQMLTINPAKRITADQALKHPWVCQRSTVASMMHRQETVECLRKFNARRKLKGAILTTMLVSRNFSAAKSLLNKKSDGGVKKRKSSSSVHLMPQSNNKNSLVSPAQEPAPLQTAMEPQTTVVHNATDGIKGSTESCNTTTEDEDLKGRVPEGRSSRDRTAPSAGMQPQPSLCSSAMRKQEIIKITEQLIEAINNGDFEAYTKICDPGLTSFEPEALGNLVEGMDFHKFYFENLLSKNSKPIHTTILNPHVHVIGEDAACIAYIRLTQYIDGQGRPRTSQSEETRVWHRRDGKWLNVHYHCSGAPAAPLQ
UniProt Q15131: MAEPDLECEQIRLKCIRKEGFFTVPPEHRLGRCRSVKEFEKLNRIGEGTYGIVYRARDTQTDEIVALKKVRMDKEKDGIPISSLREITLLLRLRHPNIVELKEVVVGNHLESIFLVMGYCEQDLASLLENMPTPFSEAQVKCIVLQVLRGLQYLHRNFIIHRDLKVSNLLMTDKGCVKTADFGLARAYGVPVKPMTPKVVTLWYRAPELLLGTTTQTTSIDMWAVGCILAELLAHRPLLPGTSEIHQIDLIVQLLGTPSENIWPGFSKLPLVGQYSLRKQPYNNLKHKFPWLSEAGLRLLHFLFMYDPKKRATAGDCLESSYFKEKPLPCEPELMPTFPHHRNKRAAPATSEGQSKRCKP
UniProt Q00526: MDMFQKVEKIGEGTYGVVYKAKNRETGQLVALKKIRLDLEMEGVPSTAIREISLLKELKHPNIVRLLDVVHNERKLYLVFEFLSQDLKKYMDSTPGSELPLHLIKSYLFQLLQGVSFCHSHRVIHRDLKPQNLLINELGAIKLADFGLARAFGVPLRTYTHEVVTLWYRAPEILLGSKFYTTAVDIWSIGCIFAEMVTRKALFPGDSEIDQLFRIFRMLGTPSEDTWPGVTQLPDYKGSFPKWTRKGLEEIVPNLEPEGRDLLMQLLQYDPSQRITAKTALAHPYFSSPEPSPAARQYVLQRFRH
UniProt Q00535, whole entry, looked up: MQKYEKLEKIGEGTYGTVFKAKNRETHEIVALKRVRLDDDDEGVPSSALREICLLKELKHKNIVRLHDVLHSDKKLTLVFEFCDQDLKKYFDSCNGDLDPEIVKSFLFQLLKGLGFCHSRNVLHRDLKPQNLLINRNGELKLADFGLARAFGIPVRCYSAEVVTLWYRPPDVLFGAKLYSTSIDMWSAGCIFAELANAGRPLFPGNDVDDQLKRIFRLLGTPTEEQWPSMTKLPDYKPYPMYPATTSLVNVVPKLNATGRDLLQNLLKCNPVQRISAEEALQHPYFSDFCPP
UniProt Q00534, whole entry: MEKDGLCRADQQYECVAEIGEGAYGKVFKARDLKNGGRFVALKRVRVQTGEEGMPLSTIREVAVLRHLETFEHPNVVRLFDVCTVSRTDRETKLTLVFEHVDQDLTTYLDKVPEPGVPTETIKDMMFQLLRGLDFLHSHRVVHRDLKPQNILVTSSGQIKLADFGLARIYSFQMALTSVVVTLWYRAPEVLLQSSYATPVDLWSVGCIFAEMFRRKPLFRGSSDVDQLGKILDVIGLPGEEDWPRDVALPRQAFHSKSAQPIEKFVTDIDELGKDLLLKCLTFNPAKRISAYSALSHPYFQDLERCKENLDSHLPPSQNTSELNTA
UniProt O96017, whole entry: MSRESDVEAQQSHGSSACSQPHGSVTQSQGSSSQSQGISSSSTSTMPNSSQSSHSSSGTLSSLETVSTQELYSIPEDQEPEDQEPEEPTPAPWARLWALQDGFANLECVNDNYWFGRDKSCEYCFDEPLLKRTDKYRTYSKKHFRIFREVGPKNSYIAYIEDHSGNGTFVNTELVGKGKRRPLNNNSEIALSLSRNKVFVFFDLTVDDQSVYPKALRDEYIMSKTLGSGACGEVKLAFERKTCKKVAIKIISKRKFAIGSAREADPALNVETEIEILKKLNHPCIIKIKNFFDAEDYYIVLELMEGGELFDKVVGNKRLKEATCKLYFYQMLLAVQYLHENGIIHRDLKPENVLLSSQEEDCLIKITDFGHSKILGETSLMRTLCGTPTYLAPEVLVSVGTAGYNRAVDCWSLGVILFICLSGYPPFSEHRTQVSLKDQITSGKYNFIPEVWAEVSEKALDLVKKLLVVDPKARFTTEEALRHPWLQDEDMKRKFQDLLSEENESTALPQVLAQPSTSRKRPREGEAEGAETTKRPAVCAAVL
UniProt P07333, whole entry: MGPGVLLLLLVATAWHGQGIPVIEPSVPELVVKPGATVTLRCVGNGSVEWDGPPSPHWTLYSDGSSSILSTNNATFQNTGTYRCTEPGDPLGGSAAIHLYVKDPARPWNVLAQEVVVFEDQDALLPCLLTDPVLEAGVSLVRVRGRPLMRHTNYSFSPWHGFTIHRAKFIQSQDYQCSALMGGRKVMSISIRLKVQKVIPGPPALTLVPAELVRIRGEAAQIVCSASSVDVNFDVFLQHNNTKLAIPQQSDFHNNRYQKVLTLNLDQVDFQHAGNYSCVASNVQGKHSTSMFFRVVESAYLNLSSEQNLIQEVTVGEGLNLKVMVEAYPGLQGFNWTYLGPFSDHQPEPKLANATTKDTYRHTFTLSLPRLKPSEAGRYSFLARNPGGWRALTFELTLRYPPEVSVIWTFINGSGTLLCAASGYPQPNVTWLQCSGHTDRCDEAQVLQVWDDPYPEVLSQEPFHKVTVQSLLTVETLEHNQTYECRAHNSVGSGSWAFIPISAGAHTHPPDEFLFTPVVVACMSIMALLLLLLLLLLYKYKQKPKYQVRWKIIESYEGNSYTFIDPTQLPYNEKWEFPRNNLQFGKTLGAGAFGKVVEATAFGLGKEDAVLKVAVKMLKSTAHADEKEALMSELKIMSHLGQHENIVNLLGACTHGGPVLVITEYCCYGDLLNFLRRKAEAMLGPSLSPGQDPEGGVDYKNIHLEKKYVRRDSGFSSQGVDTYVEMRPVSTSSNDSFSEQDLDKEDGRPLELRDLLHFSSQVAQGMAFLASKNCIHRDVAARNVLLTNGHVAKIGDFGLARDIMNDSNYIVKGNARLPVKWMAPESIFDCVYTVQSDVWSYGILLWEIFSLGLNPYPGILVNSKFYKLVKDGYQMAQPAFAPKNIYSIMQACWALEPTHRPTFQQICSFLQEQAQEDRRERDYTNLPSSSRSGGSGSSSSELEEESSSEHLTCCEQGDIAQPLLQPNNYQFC
UniProt P41240: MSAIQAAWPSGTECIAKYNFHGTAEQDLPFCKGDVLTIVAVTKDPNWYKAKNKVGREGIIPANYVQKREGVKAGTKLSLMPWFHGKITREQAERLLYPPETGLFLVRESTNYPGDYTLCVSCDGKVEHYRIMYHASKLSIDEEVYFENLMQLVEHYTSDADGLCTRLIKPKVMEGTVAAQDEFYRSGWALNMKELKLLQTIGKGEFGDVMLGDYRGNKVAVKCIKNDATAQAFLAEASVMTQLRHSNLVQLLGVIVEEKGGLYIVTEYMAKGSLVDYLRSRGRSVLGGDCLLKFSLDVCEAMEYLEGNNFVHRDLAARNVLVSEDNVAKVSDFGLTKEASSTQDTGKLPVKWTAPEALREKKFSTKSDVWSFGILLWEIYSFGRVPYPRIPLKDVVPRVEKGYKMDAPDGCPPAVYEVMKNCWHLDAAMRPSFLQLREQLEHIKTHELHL
UniProt P48729: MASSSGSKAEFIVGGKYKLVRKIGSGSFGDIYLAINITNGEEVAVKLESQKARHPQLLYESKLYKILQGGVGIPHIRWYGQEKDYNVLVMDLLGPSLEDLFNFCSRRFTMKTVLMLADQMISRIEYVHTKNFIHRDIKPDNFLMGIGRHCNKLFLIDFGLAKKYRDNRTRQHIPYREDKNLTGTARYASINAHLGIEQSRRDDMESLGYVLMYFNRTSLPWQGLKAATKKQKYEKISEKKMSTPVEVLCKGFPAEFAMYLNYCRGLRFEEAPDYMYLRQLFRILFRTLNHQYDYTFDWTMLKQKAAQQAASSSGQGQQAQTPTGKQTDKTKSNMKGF
UniProt P48730: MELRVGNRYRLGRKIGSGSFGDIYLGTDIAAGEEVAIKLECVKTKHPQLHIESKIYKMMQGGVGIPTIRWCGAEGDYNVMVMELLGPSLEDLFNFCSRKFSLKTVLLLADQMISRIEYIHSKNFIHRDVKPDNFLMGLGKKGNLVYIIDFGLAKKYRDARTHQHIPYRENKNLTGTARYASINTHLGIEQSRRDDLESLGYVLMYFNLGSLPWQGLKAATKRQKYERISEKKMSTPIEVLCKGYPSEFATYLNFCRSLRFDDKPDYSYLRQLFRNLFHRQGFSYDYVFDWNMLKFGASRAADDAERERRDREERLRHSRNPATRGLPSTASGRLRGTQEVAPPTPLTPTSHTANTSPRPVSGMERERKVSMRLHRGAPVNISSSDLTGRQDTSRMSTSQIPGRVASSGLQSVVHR
UniProt Q08345: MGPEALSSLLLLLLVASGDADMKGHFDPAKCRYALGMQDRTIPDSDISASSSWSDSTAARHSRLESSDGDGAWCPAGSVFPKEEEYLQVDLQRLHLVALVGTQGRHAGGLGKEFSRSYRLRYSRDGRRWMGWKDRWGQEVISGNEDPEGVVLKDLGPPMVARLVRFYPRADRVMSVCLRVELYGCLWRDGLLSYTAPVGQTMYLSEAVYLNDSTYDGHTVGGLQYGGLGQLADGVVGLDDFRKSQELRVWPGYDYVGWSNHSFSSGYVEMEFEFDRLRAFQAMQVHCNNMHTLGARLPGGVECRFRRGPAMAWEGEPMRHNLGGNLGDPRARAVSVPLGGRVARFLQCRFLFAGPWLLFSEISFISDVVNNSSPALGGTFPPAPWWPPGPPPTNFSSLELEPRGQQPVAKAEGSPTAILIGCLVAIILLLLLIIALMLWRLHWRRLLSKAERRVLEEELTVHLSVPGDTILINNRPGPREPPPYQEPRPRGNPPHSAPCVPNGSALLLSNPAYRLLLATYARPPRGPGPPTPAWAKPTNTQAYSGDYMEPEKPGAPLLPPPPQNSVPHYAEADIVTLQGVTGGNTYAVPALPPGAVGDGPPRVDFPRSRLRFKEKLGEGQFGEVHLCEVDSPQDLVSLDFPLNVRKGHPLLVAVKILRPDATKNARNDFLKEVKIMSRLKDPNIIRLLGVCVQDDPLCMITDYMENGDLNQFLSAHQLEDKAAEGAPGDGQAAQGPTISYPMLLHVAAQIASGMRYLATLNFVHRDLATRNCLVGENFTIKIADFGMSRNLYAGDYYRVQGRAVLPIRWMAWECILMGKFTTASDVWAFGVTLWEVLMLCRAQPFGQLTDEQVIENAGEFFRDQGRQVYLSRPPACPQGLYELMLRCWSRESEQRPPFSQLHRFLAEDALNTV
UniProt Q92630: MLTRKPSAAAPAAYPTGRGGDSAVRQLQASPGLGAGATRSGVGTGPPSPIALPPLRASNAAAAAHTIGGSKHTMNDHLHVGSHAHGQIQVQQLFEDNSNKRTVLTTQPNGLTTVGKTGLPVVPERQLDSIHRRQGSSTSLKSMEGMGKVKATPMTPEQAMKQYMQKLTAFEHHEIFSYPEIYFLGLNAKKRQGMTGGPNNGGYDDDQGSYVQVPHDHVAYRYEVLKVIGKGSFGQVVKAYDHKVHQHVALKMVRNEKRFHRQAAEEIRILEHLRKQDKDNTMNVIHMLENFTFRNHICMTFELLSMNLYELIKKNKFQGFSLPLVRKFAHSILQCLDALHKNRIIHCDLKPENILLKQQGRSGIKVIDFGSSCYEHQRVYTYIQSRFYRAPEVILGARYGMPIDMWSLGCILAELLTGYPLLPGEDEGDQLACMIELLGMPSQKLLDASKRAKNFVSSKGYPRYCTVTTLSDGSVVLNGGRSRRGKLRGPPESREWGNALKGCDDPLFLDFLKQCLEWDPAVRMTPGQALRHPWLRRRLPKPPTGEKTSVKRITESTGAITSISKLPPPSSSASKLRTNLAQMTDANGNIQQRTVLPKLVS

Measured: number of time points

COc1ccc(/C=C/C(=O)C2(C(=O)/C=C/c3ccc(OC)c(OC)c3)CCCCC2)cc1OC (2.5 µM)
2: DYRK2
0: all other assays above

CS(=O)(=O)c1ccc(-c2cnc(N)c(-c3ccc(C(F)(F)F)nc3)c2)cc1 (10 µM)
0: all assays above

Nc1cccc(-c2cc3c(Oc4cccc(O)c4)ncnc3[nH]2)c1 (10 µM)
1: CAMK2G | CSNK1A1 | EGFR_G719S | EGFR_L858R
3: DYRK2
2: CHEK2 | CSNK1D | DDR1
0: all other assays above

C[C@@H]1CCNC(=O)c2cc3ccc(C(=O)Nc4nc5ccccc5n4CCCN(C)C)cc3n21 (10 µM)
0: all assays above

C[C@H](Nc1ncnc2nc[nH]c12)c1cc2cccc(Cl)c2c(=O)n1-c1ccccc1 [Duvelisib] (10 µM)
0: all assays above

COc1ccc(-c2c(C)nn3c(NCCN4CCOCC4)cc(C)nc23)cc1OC (10 µM)
0: all assays above

COc1cc2ncnc(Nc3ccccc3)c2cc1OC (10 µM)
0: all assays above

Cc1ccc(NC(=O)c2ccc(CN(CCN(C)C)C(=O)c3cccnc3)cc2)cc1Nc1nccc(-c2cccnc2)n1 [PDGFRα kinase inhibitor 1] (10 µM)
0: all assays above

Cc1cnc(NC2CCOCC2)nc1-n1cnc(C(=O)N[C@H](CN)c2cc(F)cc(Cl)c2)c1 (10 µM)
0: all assays above

O=C1NC(=O)/C(=C/c2ccc3nccc(-c4ccncc4)c3c2)S1 (10 µM)
2: EGFR_G719S
1: CSNK1A1
0: all other assays above

COc1cc2ncnc(Nc3ccc(F)c(Cl)c3)c2cc1NC(=O)/C=C/CN1CCCCC1 [Dacomitinib] (10 µM)
0: all assays above

CCN(CC)c1cc2oc(=O)c(-c3nc4ccccc4o3)cc2cc1C (2.5 µM)
1: EGFR
0: all other assays above

COc1cc2ncnc(-n3nc(-c4ccccn4)nc3N)c2cc1OC (10 µM)
0: all assays above

Nc1c(C(=O)NCc2ccc(C(=O)NCCCC3CCCCC3)cc2)cnn1-c1ccccc1 (2.5 µM)
0: all assays above

An excerpt from above in order of count of non-hydrogen atoms, low to high:
O=C1NC(=O)/C(=C/c2ccc3nccc(-c4ccncc4)c3c2)S1 (10 µM)
2: EGFR_G719S
1: CSNK1A1
0: all other assays above

CCN(CC)c1cc2oc(=O)c(-c3nc4ccccc4o3)cc2cc1C (2.5 µM)
1: EGFR
0: all other assays above

Cc1cnc(NC2CCOCC2)nc1-n1cnc(C(=O)N[C@H](CN)c2cc(F)cc(Cl)c2)c1 (10 µM)
0: all assays above

Next part:

O=C(NC1CCOCC1)c1ccc(-c2cc(-c3c[nH]nc3-c3ccccn3)ccn2)cc1 (10 µM)
0: all assays above

Cc1cccc2c3c(ccc12)C(=O)C1=C(OCC1C)C3=O (stereo not given) [Dihydroisotanshinone I] (2.5 µM)
0: all assays above

C=CC(=O)N1C(=O)CC(c2ccc(F)cc2)Sc2ccccc21 (stereo not drawn) [GSK-3β inhibitor 3] (10 µM)
2: DDR1
1: CSNK1A1
3: CHEK2
0: all other assays above

c1ccc(-c2nc3c(c(-n4ccc5cnccc54)n2)CCC3)nc1 (10 µM)
0: all assays above

O[C@@H]1CO[C@H]2[C@@H]1OC[C@H]2Oc1nc2nc(-c3ccc(-c4ccccc4)cc3)c(Cl)cc2[nH]1 (10 µM)
1: EGFR_G719S_T790M
2: DYRK2
0: all other assays above

Cc1ccc(Oc2nc3cc(-c4ccc(-c5ccccc5)cc4)c(Cl)cc3[nH]2)cc1C(=O)O (10 µM)
0: all assays above

O=C(Nc1nc2ccccc2[nH]1)c1cccc([N+](=O)[O-])c1 [IRAK-4 protein kinase inhibitor 2] (10 µM)
0: all assays above

Cc1cc(C)nc(NS(=O)(=O)c2ccc(NC(=S)NC(=O)COc3ccc(Br)cc3Cl)cc2)n1 (2.5 µM)
0: all assays above

CN(C)CCC=C1c2ccccc2CCc2ccccc21 [Amitriptyline (hydrochloride)] (2.5 µM)
0: all assays above

C[C@H](Nc1ncnc2[nH]cnc12)c1cc2ccc(F)cc2nc1-c1ccccn1 (10 µM)
0: all assays above

O=C(NCc1cccc(O)c1)Nc1nc(-c2ccncc2)cs1 (10 µM)
0: all assays above

Cc1c(-c2ccc(C(N)=O)c3[nH]c4cc(C(C)(C)O)ccc4c23)cccc1-n1cnc2ccccc2c1=O (2.5 µM)
0: all assays above

Cc1cnc(-c2ccc(-c3ccc(NC(=O)Nc4cccc(C(F)(F)F)c4)cc3F)c3c2C(=O)NC3)[nH]1 (10 µM)
3: CSNK1A1 | EGFR_G719S
0: all other assays above

COc1cc(-c2cn[nH]c2)ccc1C(=O)Nc1ccc2c(c1)CCNCC2 (10 µM)
1: DDR1
0: all other assays above

COc1cc(N(C)CCN(C)C)c(N)cc1Nc1nccc(-c2cn(C)c3ccccc23)n1 [Mutated EGFR-IN-1] (10 µM)
0: all assays above

Cn1cnc([N+](=O)[O-])c1C[N+](C)(C)C/C=C/C(=O)Nc1cc2c(Nc3ccc(Cl)c(Br)c3)ncnc2cn1 [Tarloxotinib (bromide)] (10 µM)
0: all assays above

CC(C)(C[C@H](N)C(=O)O)C(F)F [NV-5138 (hydrochloride)] (10 µM)
0: all assays above

Cc1cc(-c2ccnc(Nc3cnn(C)c3)n2)ccc1CNC(=O)N1CC(OC(C)C)C1 (10 µM)
0: all assays above

CC(C)N1CCN(c2ccc(Nc3ncc4cc5n(c4n3)C3(CCCCC3)CNC5=O)nc2)CC1 [Lerociclib (dihydrochloride)] (2 µM)
2: DDR1 | DYRK2
0: all other assays above

O=C(O)c1cc(=O)c2c(OCC(O)COc3cccc4oc(C(=O)O)cc(=O)c34)cccc2o1 [Cromolyn (sodium)] (10 µM)
0: all assays above

O=C1NC(=O)C(c2cnc3ccccn23)=C1c1cn2c3c(cc(F)cc13)CNCC2 [GSK-3 inhibitor 1] (2.5 µM)
0: all assays above

CC(C)(O)[C@H]1CC[C@H](Nc2ccc3ncc(-c4cccc(C(F)(F)F)c4)n3n2)CC1 (10 µM)
0: all assays above

CC[C@@](C)(Nc1ccnc(-c2c[nH]c3ncccc23)n1)C(=O)NCC(F)(F)F [Decernotinib] (10 µM)
0: all assays above

O=c1cc(-c2cccc3c2Sc2ccccc2S3)oc(N2CCOCC2)c1 (10 µM)
0: all assays above

O=c1cc(N2CCOCC2)nc2c3ccccc3ccn12 [Compound 401] (10 µM)
0: all assays above

O=C1O[C@H]([C@@H](O)CO)C(O)=C1OP(=O)(O)O [2-Phospho-L-ascorbic acid (trisodium)] (10 µM)
0: all assays above

Nc1nc(N)c2nc(-c3cccc(O)c3)cnc2n1 (10 µM)
0: all assays above

CC(C)c1cccc(C(C)C)c1N1C(=O)c2ccc(N)cc2C1=O (2.5 µM)
0: all assays above

CCc1ccc(OCC(=O)Nc2ccc(F)c([N+](=O)[O-])c2)cc1 (10 µM)
0: all assays above

Cc1nc(-c2cnn(C)c2)nc2c1[nH]c1ncc(-c3ccc(N4CCN(C)CC4)cc3)cc12 [GNE 220 (hydrochloride)] (10 µM)
0: all assays above

O=C(N[C@@H](C1CC1)C(F)(F)F)c1cc(-c2cnn3cc(-c4ccc(F)cc4)cnc23)cs1 (10 µM)
0: all assays above

CNc1nc(Nc2cn(C(C)(C)C#N)nc2C)ncc1C(F)(F)F (10 µM)
0: all assays above

CC(=O)N1CCC(c2cc(-c3ccc(NC(=O)c4cccn(-c5ccc(F)cc5)c4=O)cc3F)c3c(N)ncnn23)CC1 (0.5 µM)
2: DYRK2
0: all other assays above

N#Cc1c2nc3ccccc3nc2n2ccc(NC(=O)c3cccs3)cc12 (10 µM)
0: all assays above

COc1ccc(N=Nc2c(N)n[nH]c2N)cc1 (10 µM)
0: all assays above

Reference: the supplement of paper PMC12823440, “Inhibitors supercharge kinase turnover through native proteolytic circuits” (Nature, 2025)
